Measurements reported in PubChem BioAssay AID743454 (Peter MacCallum Cancer Centre, 2014).

Aim: 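Genes whose loss kills vorinostat-resistant colon cancer cells under vorinostat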 (primary screen)
System: human HCT116-VR colon cancer cells, selected for vorinostat resistance
Reagents: siRNA pool against human genes, 40 nM siRNA pool
Timing: vorinostat for 24 h, read-out about 72 h after transfection
Conditions: vorinostat at 2.5 µM final
Detection: 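Two measures, CellTiter-Fluor viability and luminescent caspase 3/7 activity, each as fold change against same-plate mock wells, mean of duplicates, then screen-wide robust z-score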
Reading the numbers: viability robust z-score: higher = more viable cells than screen typical; caspase robust z-score: higher = more caspase 3/7 activity than screen typical
Call rule: 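a knock-down is a hit when classed RV1 or RV2 for lowered viability, or CA1 or CA2 for caspase activation; those lethal without drug were dropped; hits were retested singly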
Shown is one part, drawn at random, of about 18,000 reagents. 450 of them (2.5%) count as active. 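Single biological run; no consistent viability z cut-off exists, so the class columns, not z-scores, define the calls.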

Gene | viability hit class | caspase hit class | viability robust z-score | caspase robust z-score | outcome
DTYMK (deoxythymidylate kinase) | no change | no change | 0.86 | 0.75 | inactive
C11orf42 (chromosome 11 open reading frame 42) | no change | no change | -0.04 | 0.5 | inactive
RGL1 (ral guanine nucleotide dissociation stimulator like 1) | no change | no change | 0.2 | -0.66 | inactive
KHNYN (KH and NYN domain containing) | no change | no change | -0.07 | -0.22 | inactive
TRAIP (TRAF interacting protein) | no change | no change | -1.27 | 0.66 | inactive
ZNF764 (zinc finger protein 764) | no change | no change | 0.86 | 1.84 | inactive
BDP1 (BDP1 general transcription factor IIIB subunit) | RV2 (reduced viability) | no change | -3.62 | -0.68 | active
ESX1 (ESX homeobox 1) | no change | no change | -0.34 | 0.65 | inactive
RDH11 (retinol dehydrogenase 11) | no change | no change | -1.38 | 0.98 | inactive
SLC35A3 | no change | no change | -1.05 | -0.6 | inactive
TMEM105 (TMEM105 long non-coding RNA) | no change | no change | 0.34 | -0.1 | inactive
MMD (monocyte to macrophage differentiation associated) | no change | no change | -0.1 | -0.71 | inactive
OXT (oxytocin/neurophysin I prepropeptide) | no change | no change | 0.44 | -0.72 | inactive
SMARCA5 (SNF2 related chromatin remodeling ATPase 5) | no change | no change | -0.96 | 0.88 | inactive
ITGA6 (integrin subunit alpha 6) | no change | no change | 0.52 | -0.68 | inactive
MBOAT7 | no change | no change | -0.38 | 1.15 | inactive
VPS50 (VPS50 subunit of EARP/GARPII complex) | no change | no change | -0.29 | -0.69 | inactive
EMID1 (EMI domain containing 1) | no change | no change | 0.19 | 4.78 | inactive
VPS51 (VPS51 subunit of GARP complex) | no change | no change | -1.54 | -0.31 | inactive
GUSB (glucuronidase beta) | no change | no change | -0.56 | 0.9 | inactive
TRUB1 (TruB pseudouridine synthase family member 1) | no change | no change | 0.71 | -0.49 | inactive
PEAK3 (PEAK family member 3) | no change | no change | 0.33 | 1.21 | inactive
ISCA1P1 (iron-sulfur cluster assembly 1 pseudogene 1) | no change | no change | 0.13 | -1.15 | inactive
EIF3H (eukaryotic translation initiation factor 3 subunit H) | no change | no change | -0.5 | -0.57 | inactive
TRIM14 (tripartite motif containing 14) | no change | no change | 1.06 | -0.43 | inactive
NICN1 (nicolin 1, tubulin polyglutamylase complex subunit) | no change | no change | -0.08 | -0.85 | inactive
RMDN1 (regulator of microtubule dynamics 1) | no change | no change | 0.46 | -0.61 | inactive
LPIN1 (lipin 1) | no change | no change | 0.97 | 1.84 | inactive
TCAIM (T cell activation inhibitor, mitochondrial) | no change | no change | 1.27 | -0.78 | inactive
IVL (involucrin) | no change | no change | -1.99 | -0.66 | inactive
TPD52L3 (TPD52 like 3) | no change | no change | 1.21 | 0.4 | inactive
C14orf181 (retired record) | no change | no change | 1.4 | 1.33 | inactive
CERS3 (ceramide synthase 3) | no change | no change | -0.26 | -0.77 | inactive
PRRC2A (proline rich coiled-coil 2A) | no change | no change | -0.57 | 1.05 | inactive
NIP7 (nucleolar pre-rRNA processing protein NIP7) | no change | no change | -2.09 | -0.82 | inactive
FOLH1 (folate hydrolase 1) | no change | no change | -1.73 | 4.52 | inactive
UBOX5 (U-box domain containing 5) | no change | no change | -0.15 | -0.46 | inactive
MREG (melanoregulin) | no change | no change | 0.28 | -0.31 | inactive
G0S2 (G0/G1 switch 2) | no change | no change | -0.18 | 1.21 | inactive
RAB17 (RAB17, member RAS oncogene family) | no change | no change | -0.14 | 1.88 | inactive
SLX1A (structure-specific endonuclease subunit SLX1A) | no change | no change | -0.34 | 4.84 | inactive
SLC10A7 | no change | no change | 0.03 | -0.26 | inactive
UHRF2 (ubiquitin like with PHD and ring finger domains 2) | no change | no change | -0.54 | 3.72 | inactive
TSPAN32 (tetraspanin 32) | no change | no change | 0.13 | -1.55 | inactive
IL12B (interleukin 12B) | no change | no change | 0.18 | -1.11 | inactive
ESS2 (ess-2 spliceosome associated protein) | no change | no change | 0.2 | 0.14 | inactive
H3C10 (H3 clustered histone 10) | no change | no change | -1.06 | -1.03 | inactive
KEAP1 (kelch like ECH associated protein 1) | no change | no change | 0.18 | 0.15 | inactive
DHX8 (DEAH-box helicase 8) | no change | no change | -1.99 | -1.19 | inactive
RIC8B (RIC8 guanine nucleotide exchange factor B) | no change | no change | -0.43 | -0.02 | inactive
MT1X (metallothionein 1X) | no change | no change | 1.29 | -0.27 | inactive
SSRP1 (structure specific recognition protein 1) | no change | no change | -0.76 | 0.5 | inactive
STXBP6 (syntaxin binding protein 6) | no change | no change | 0.62 | -0.8 | inactive
CD6 (CD6 molecule) | no change | no change | 0.23 | 1.75 | inactive
HBM (hemoglobin subunit mu) | no change | no change | -1.21 | 1.44 | inactive
OR5M3 (olfactory receptor family 5 subfamily M member 3) | no change | no change | 0.63 | -0.34 | inactive
MLLT3 (MLLT3 super elongation complex subunit) | no change | no change | 1.81 | -0.63 | inactive

No new results follow: an excerpt of the list.
Gene | viability hit class | caspase hit class | viability robust z-score | caspase robust z-score | outcome
EIF3H (eukaryotic translation initiation factor 3 subunit H) | no change | no change | -0.5 | -0.57 | inactive
TRIM14 (tripartite motif containing 14) | no change | no change | 1.06 | -0.43 | inactive
NICN1 (nicolin 1, tubulin polyglutamylase complex subunit) | no change | no change | -0.08 | -0.85 | inactive
RMDN1 (regulator of microtubule dynamics 1) | no change | no change | 0.46 | -0.61 | inactive
